According to publication PMC10252016, “Mutation in the Common Docking Domain Affects MAP Kinase ERK2 Catalysis and Stability” (Cancers, 2023):
No constants are given. Whether binding was seen depends on the method and setting.

Biological target: phosphorylated ERK2 D321N (human) (UniProt P28482)
Assay: condition: 500 µM peptide in the syringe, 113 µM P-ERK2 D321N in the cell; ITC; Affinity ITC (TA-Instruments), reversed mode: ERK2 protein (90-145 µM) in the cell, peptide (500 µM) in the syringe; 30 °C; 20 mM Hepes pH 7.5, 0.15 M NaCl, 0.5 mM TCEP; single binding site model; both purified

binding: no binding
B1: Kinase Interaction Motif (KIM) peptide of DUSP6 (peptide)
peptide: GIMLRRLQKGNLPVRAL
notes: Solubilised in 5% DMSO and diluted in buffer; also called KIM of DUSP6; KIM peptide DUSP6; source: synthetic peptide, bought: GenScript
